This data set is described as follows: general procedure: peptide synthesis; Fmoc-Phe-Rink amide-MBHA resin; TentaGel resin loaded with Fmoc-Glycine (dendrimers); DCC/HOBt; HBTU/HOBt/DIEA (dendrimers). The settings on record: coupling step.

Data on two substances can be found in US8703907B2 (Prolynx LLC, priority 2010, dated 2014).

On to [Boc-Lys(Boc)]4[Lys]2Lys-DAB-DNP, for which the step yield was 48%.

[Boc-Lys(Tfa)]8[Lys]4[Lys]2Lys-DAB-DNP had a step yield of 50%.
